Measurements published in publication PMC12409425, “Two distinct protein-protein interfaces drive cooperative binding of the herpes simplex virus protein ICP8 to ssDNA, filament formation and annealing essential for viral replication” (The Journal of Biological Chemistry, 2025).
No constants are given. Whether binding was seen depends on the method and setting.

Sequences of proteins named here, by UniProt entry; tags and fusion partners are left off. Residues count along the entry.
UniProt P17470, residues 1036-1196: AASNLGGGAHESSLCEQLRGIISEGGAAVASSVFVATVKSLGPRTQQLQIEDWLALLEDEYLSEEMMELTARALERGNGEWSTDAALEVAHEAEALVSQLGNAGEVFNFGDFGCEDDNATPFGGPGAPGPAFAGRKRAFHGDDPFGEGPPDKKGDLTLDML

Target: ICP8-CTD WT (His-tagged entire C-terminal domain of ICP8, residues 1036-1196) (herpes simplex virus type 1 (HSV-1)) (UniProt P17470)
Experiment: label-free thermal shift (nanoDSF), dose series refitted with MoltenProt; 5 μM ICP8Δ60 preincubated with 10 to 100 μM CTD fragment (1:2 to 1:20 M ratio) for 3 h at room temperature; two-state reversible unfolding model; both purified

Which binding does the source give for “ICP8-CTD WT (His-tagged entire C-terminal domain of ICP8, residues 1036-1196) (from UniProt P17470 1036-1196) (domain or fragment)” here?
The binding was “no binding (tested: 10 to 100 μM)”.
